According to publication PMC7915902, “Preclinical Evaluation of [^18F]FACH in Healthy Mice and Piglets: An ^18F-Labeled Ligand for Imaging of Monocarboxylate Transporters with PET” (International Journal of Molecular Sciences, 2021):

Tests used:
MCTs [1] = test: Autoradiographic saturation binding (homologous displacement) in mouse kidney cryosections
Protocol: Cryosections from the mouse kidney (10 µm) were cut on a microtome (Microm HM560, Thermo Scientific Microm, Fisher Scientific GmbH, Schwerte, Germany), mounted on glass slides (SuperFrost, Thermo Scientific Menzel, Fisher Scientific GmbH), dried for two hours at room temperature, and stored at −25 °C. Before the binding experiment, the tissue slices were dried under a stream of cold air, pre-incubated with PBS (pH 7.4) for 15 min at room temperature and dried again before incubation with PBS containing [^18F]FACH (1.2 nM) without (total binding) and with different concentrations of FACH-Na (10 µM–0.1 nM; homologous competition) for 60 min. Specific binding to MCTs of [^18F]FACH in cryosections of mouse kidney was determined after co-incubation of 1 nM [^18F]FACH with vehicle or 300 nM α-CCa-Na or 300 nM reference compound (homologous competition).
The incubation was terminated by washing with ice-cold buffer (50 mM TRIS-HCl, pH 7.4) twice for two minutes followed by dipping in ice-cold demineralized water for 5 s and drying under a stream of cold air. The dried sections along with activity standards (1 µL aliquots of different dilutions of the incubation solution dried on microscopic slides) were exposed to phosphor imaging plates (FujiFilm Co., Tokyo, Japan) transferred after 120 min to a phosphor imager (HD-CR 35 Bio; Dürr NDT GmbH & Co. KG, Bietigheim-Bissingen, Germany). Regions of interest (ROIs) were drawn manually or automatically on the tissue slices or standard spots, and the pixelwise results converted to Bq/mg wet weight. Non-linear regression analysis was performed with GraphPad Prism (v.3.0 GraphPad Software, San Diego, CA, USA). KD and Bmax values were calculated by the simplified Cheng and Prusoff equation (http://www3.uah.es/farmamol/Public/GraphPad/radiolig.htm, accessed on 5 February 2021):(1) KD=Ki=IC50−Radioligand (M) (2) Bmax=Top−Bottom/Radioligand (M)/(KD+Radioligand (M))

MCTs [2] = test: Compartmental kinetic modelling of PET data in piglets; format: in vivo, piglet
Protocol: (§1) Table 4 includes the results of 1-tissue-compartment kinetic modelling (1-TCM) of [^18F]FACH in the kidney cortex and the liver of the control and pre-treated mouse groups (α-CCA-Na and reference compound). […] The BPND was estimated as the ratio of [VT(control)/VT(pre-treatment)] − 1.
(§2) Kinetic analysis of reconstructed datasets was performed with PMOD software. First, image derived arterial input functions (IDIFs) were obtained from the left ventricle in mice and from an artery close to the kidney in piglet studies. IDIFs were corrected for partial volume effects, plasma fraction from hematocrit values (individually determined for each piglet directly before PET imaging; for mice set to 0.51 according to CD-1 Mouse Hematology sheet from Charles River Laboratories, 2011) and radio-metabolites (measured for piglets, and set to zero for mice). Tri-exponential metabolite-corrected fitted input functions were used for one and two tissue compartment modelling (1-TCM/2-TCM) of time activity curves (TACs) in tissue volumes of interest (VOIs). For both species the specific blood volume was set to 0.15 mL g^−1 in the kidney cortex and 0.128 mL g^−1 in the liver, according to published values.

MCTs [3] = test: Compartmental kinetic modelling of PET data in mice; format: in vivo, mouse; conditions: after reference compound pre-treatment
Protocol: as §1, §2

**Q.** `CCCN(CCC[18F])c1ccc(/C=C(\C#N)C(=O)O)c(OC)c1` [[^18F]FACH, (E)-2-cyano-3-{4-[(3-[^18F]fluoropropyl)(propyl)amino]-2-methoxyphenyl}acrylic acid] was tested. Which Bmax (MCTs [1]; mouse kidney cortex (Co) cryosections) did it give?
**A.** The Bmax was 6.0 pmol/mg wet weight.

**Q.** What about the Bmax (MCTs [1]; mouse kidney inner medulla (IM) cryosections) of the same compound?
**A.** The Bmax was 2.4 pmol/mg wet weight.

**Q.** What about the Bmax (MCTs [1]; mouse kidney outer medulla (OM) cryosections) of the same compound?
**A.** Its Bmax is 5.4 pmol/mg wet weight.

**Q.** What about the “VT in piglet kidney cortex higher than in mice” value (MCTs [2]; kidney cortex, piglets vs mice) of the same compound?
**A.** Its value is “approximately 25%”.

**Q.** With `CCCN(CCCF)c1ccc(/C=C(\C#N)C(=O)[O-])c(OC)c1.[Na+]` [FACH-Na] as the compound, how does the “increase of k2 of [18F]FACH in kidney cortex” value (MCTs [3]) read?
**A.** The value was “more than 30 fold”.

**Q.** How did the “increase of k2 of [18F]FACH in kidney cortex” value (MCTs [2]; piglets, after α-CCA-Na pre-treatment) turn out when `N#CC(=Cc1ccc(O)cc1)C(=O)[O-].[Na+]` [α-CCA-Na, reference compound] was run?
**A.** Its value is 2.8 fold.
